Source: PubChem BioAssay AID248 (DTP/NCI, 2004)
The list does not hold the whole screen: it is rich in T/C values a quarter to a half above the control, in often repeated tests (any T/C) and in doses without a T/C. Other doses and runs of a compound stand elsewhere. T/C: endpoint of the treated group in % of that of the vehicle group. Some doses have a count of surviving animals in place of a T/C: the source holds a T/C of zero for them, seemingly a mark for toxic or unscored doses. Some survivor counts are full or nearly so, which does not show that the dose was tolerated: survival well below the control is almost never listed, so the zero probably covers shortened survival too. Survivors were counted at the toxicity check, usually on the fifth day, unless a day is given; later deaths do not show. Schedules are NCI's codes, taken here to give the interval after Q, in days (D) or hours (H), and the number of doses after X. Counts like (3×) stand for listed records that agree. Some schedules carry Z or #; the key to these is not given. For survival time, this PubChem deposit counts one and a half times the control or more as active, and values a quarter to a half above the control carry no call in these data; other NCI protocols may use other cut-offs. Some T/C values are followed by the survivors on the day toxicity was checked, most often the fifth; where none is given, no animal had died by that day.

Tested on: L1210 leukemia ip in BDF1 mice, survival T/C
Experiment: NCI In Vivo Anticancer Drug Screen. Data for tumor model L1210 Leukemia (intraperitoneal) in B6D2F1 (BDF1) mice
Conditions: T/C endpoint: mean survival time, higher T/C = longer survival
[1] = dose: 100.0 mg/kg/injection, schedule: Q01DX001 (ip), vehicle: saline with Tween-80
[2] = dose: 200.0 mg/kg/injection, schedule: Q01DX001 (ip), vehicle: other
[3] = dose: 400.0 mg/kg/injection, schedule: Q01DX001 (ip), vehicle: other
[4] = dose: 100.0 mg/kg/injection, schedule: Q01DX009 (ip), vehicle: Klucel (hydroxypropylcellulose) (HPC)
[5] = dose: 400.0 mg/kg/injection, schedule: Q01DX001 (ip), vehicle: saline
[6] = dose: 400.0 mg/kg/injection, schedule: Q01DX009 (ip), vehicle: saline with Tween-80
[7] = dose: 200.0 mg/kg/injection, schedule: Q04DX003 (ip), vehicle: Klucel (hydroxypropylcellulose) (HPC)
[8] = dose: 400.0 mg/kg/injection, schedule: Q04DX003 (ip), vehicle: Klucel (hydroxypropylcellulose) (HPC)
[9] = dose: 15.0 mg/kg/injection, schedule: Q01DX Z (ip), vehicle: carboxymethylcellulose (CMC)
[10] = dose: 400.0 mg/kg/injection, schedule: Q01DX001 (ip), vehicle: carboxymethylcellulose (CMC)
[11] = dose: 200.0 mg/kg/injection, schedule: Q01DX009 (ip), vehicle: Klucel (hydroxypropylcellulose) (HPC)
[12] = dose: 100.0 mg/kg/injection, schedule: Q04DX003 (ip), vehicle: Klucel (hydroxypropylcellulose) (HPC)

Nc1ncnc2nc(-c3ccc(OCCCOc4ccccc4)c(Cl)c3)[nH]c12
survivor count (dose: 25.0 mg/kg/injection, schedule: Q01DX001 (ip), vehicle: saline with Tween-80): 6 of 6 (2×) | survivor count [1]: 6 of 6

CC(=O)O[C@H]1[C@H]2O[C@]23[C@@H]2CC[C@@H]4C[C@@H](O)CC[C@]4(C)[C@H]2CC[C@]3(C)[C@H]1c1ccc(=O)oc1
survivor count (dose: 15.0 mg/kg/injection, schedule: Q01DX009 (ip), vehicle: Klucel (hydroxypropylcellulose) (HPC)): 6 of 6 | survivor count (dose: 30.0 mg/kg/injection, schedule: Q01DX009 (ip), vehicle: Klucel (hydroxypropylcellulose) (HPC)): 3 of 6 | survivor count (dose: 30.0 mg/kg/injection, schedule: Q04DX003 (ip), vehicle: Klucel (hydroxypropylcellulose) (HPC)): 1 of 6 | survivor count (dose: 40.0 mg/kg/injection, schedule: Q01DX001 (ip), vehicle: other): 2 of 4 | survivor count (dose: 50.0 mg/kg/injection, schedule: Q01DX001 (ip), vehicle: other): 0 of 4 | survivor count (dose: 60.0 mg/kg/injection, schedule: Q04DX003 (ip), vehicle: Klucel (hydroxypropylcellulose) (HPC)): 0 of 6 | survivor count (dose: 80.0 mg/kg/injection, schedule: Q01DX001 (ip), vehicle: other): 0 of 4 | survivor count (dose: 100.0 mg/kg/injection, schedule: Q01DX001 (ip), vehicle: other): 0 of 4 | survivor count (dose: 120.0 mg/kg/injection, schedule: Q04DX003 (ip), vehicle: Klucel (hydroxypropylcellulose) (HPC)): 0 of 6 | survivor count [2]: 0 of 4 | survivor count [3]: 0 of 4

NNC(=O)CNc1cccc(Cl)c1
survivor count (dose: 400.0 mg/kg/injection, schedule: Q04DX002 (ip), vehicle: Klucel (hydroxypropylcellulose) (HPC)): 0 of 3

O=C(OC1CCC/C=C\CCCC1)c1ccc(Cl)cc1 (stereo unspecified)
survivor count (dose: 100.0 mg/kg/injection, schedule: Q01DX001 (ip), vehicle: saline): 6 of 6

CC1CN(N)CC(C)N1Cc1ccccc1 (stereo unspecified)
survivor count (dose: 25.0 mg/kg/injection, schedule: Q01DX009 (ip), vehicle: water): 0 of 6 | survivor count (dose: 50.0 mg/kg/injection, schedule: Q01DX009 (ip), vehicle: water): 0 of 6 | survivor count (dose: 100.0 mg/kg/injection, schedule: Q01DX009 (ip), vehicle: water): 0 of 6 | survivor count (dose: 200.0 mg/kg/injection, schedule: Q01DX009 (ip), vehicle: water): 0 of 6 | survivor count (dose: 400.0 mg/kg/injection, schedule: Q01DX009 (ip), vehicle: water): 0 of 6

c1ccc(CSCc2ccccc2)cc1
survivor count [4]: 3 of 3

CCOc1c(CNC(=O)CCl)cc(N)cc1CNC(=O)CCl
survivor count (dose: 200.0 mg/kg/injection, schedule: Q01DX001 (ip), vehicle: saline): 1 of 4 | survivor count [5]: 0 of 4

CCCC(Cl)C(=O)Nc1cccc(O)c1 (stereo unspecified)
survivor count [6]: 1 of 6

CCCCCCCCCCCCCCCCOc1ccc(CC)cc1
survivor count [7]: 5 of 6 | survivor count [8]: 6 of 6

O=C(Nc1ccc(C2=NCCN2)c(Cl)c1)c1ccc(C(=O)Nc2ccc(C3=NCCN3)c(Cl)c2)cc1
T/C [9]: 135 % of control | survivor count [9]: 1 of 6 | T/C (dose: 60.0 mg/kg/injection, schedule: Q01DX Z (ip), vehicle: carboxymethylcellulose (CMC)): 138 % of control [5 of 6 alive]

COc1ccc(CCC2(C=O)CNCN2)cc1 (stereo unspecified)
survivor count [3]: 4 of 4

CCC(CC)(CCN)c1ccccc1
survivor count (dose: 200.0 mg/kg/injection, schedule: Q01DX001 (ip), vehicle: carboxymethylcellulose (CMC)): 2 of 4 | survivor count [10]: 0 of 4

Clc1ccc(SSC(Cl)(Cl)Cl)cc1
survivor count [4]: 0 of 6 | survivor count [11]: 4 of 6 | survivor count (dose: 400.0 mg/kg/injection, schedule: Q01DX009 (ip), vehicle: Klucel (hydroxypropylcellulose) (HPC)): 0 of 6

CCCCCCCCCCCCN1CCC(=O)NC1=O
survivor count [6]: 6 of 6

CSc1ccc(OC(=O)Nc2ccc(C)c([N+](=O)[O-])c2)cc1C
survivor count [6]: 0 of 6

CCCCCCCCCCCCCCCCP(=O)(OCCOCCCCCC)OCCOCCCCCC
survivor count (dose: 75.0 mg/kg/injection, schedule: Q01DX009 (ip), vehicle: saline): 3 of 6 | survivor count (dose: 100.0 mg/kg/injection, schedule: Q04DX003 (ip), vehicle: acetone): 2 of 6 | survivor count (dose: 115.0 mg/kg/injection, schedule: Q01DX009 (ip), vehicle: saline): 2 of 6 | survivor count (dose: 170.0 mg/kg/injection, schedule: Q01DX009 (ip), vehicle: saline): 1 of 6 | survivor count (dose: 200.0 mg/kg/injection, schedule: Q04DX003 (ip), vehicle: acetone): 4 of 6 | survivor count (dose: 400.0 mg/kg/injection, schedule: Q04DX003 (ip), vehicle: acetone): 1 of 6

Cc1ccc(NSC(Cl)(Cl)Cl)cc1
survivor count (dose: 400.0 mg/kg/injection, schedule: Q04DX002 (ip), vehicle: saline with Tween-80): 0 of 3

CCc1c(CBr)c(=O)[nH]c2ccccc12
survivor count [2]: 1 of 4 | survivor count [3]: 1 of 4

CCOC(=O)C(Br)CCCC(Br)C(=O)OCC (stereo unspecified)
survivor count (dose: 200.0 mg/kg/injection, schedule: Q01DX009 (ip), vehicle: saline with Tween-80): 5 of 6

CN(C)C(=S)SC(=S)N(C)C
survivor count (dose: 100.0 mg/kg/injection, schedule: Q04DX002 (ip), vehicle: Klucel (hydroxypropylcellulose) (HPC)): 3 of 3

CCCCCCCCCCCC(=O)NC(=S)Nc1cc([N+](=O)[O-])ccc1C
survivor count [12]: 6 of 6 | survivor count [7]: 6 of 6 | survivor count [8]: 6 of 6

OCC1OC(n2ccc3c([Se])ncnc32)C(O)C1O (stereo unspecified)
survivor count (dose: 200.0 mg/kg/injection, schedule: Q01DX005 (ip), vehicle: saline): 1 of 6

O=C1CC2CCC(C1)N2CC1COc2ccccc2O1 (stereo unspecified)
survivor count [5]: 0 of 6

O=C(OC1COC(OCc2ccccc2)C(OC(=O)c2ccccc2)C1OC(=O)c1ccccc1)c1ccccc1 (stereo unspecified)
survivor count (dose: 50.0 mg/kg/injection, schedule: Q04DX003 (ip), vehicle: saline with Tween-80): 6 of 6 | survivor count (dose: 200.0 mg/kg/injection, schedule: Q04DX003 (ip), vehicle: saline with Tween-80): 6 of 6 | survivor count (dose: 400.0 mg/kg/injection, schedule: Q04DX003 (ip), vehicle: saline with Tween-80): 6 of 6

CN(C)CCC#N
survivor count (dose: 400.0 mg/kg/injection, schedule: Q04DX003 (ip), vehicle: saline): 4 of 6

CCCCC(CC)C(=O)[O][Pb]([CH3])([CH3])[CH3] (stereo unspecified)
survivor count [1]: 0 of 6 | survivor count (dose: 200.0 mg/kg/injection, schedule: Q01DX001 (ip), vehicle: saline with Tween-80): 0 of 6 | survivor count (dose: 400.0 mg/kg/injection, schedule: Q01DX001 (ip), vehicle: saline with Tween-80): 0 of 6

O=c1[nH]c2ccccc2n1C1CCN(CCCC(c2ccc(F)cc2)c2ccc(F)cc2)CC1
survivor count (dose: 50.0 mg/kg/injection, schedule: Q01DX009 (ip), vehicle: Klucel (hydroxypropylcellulose) (HPC)): 5 of 6 | survivor count [11]: 6 of 6

CCCCCCCCCCCC(=O)NC(=S)Nc1ccccc1Cl
survivor count [12]: 6 of 6 | survivor count [7]: 4 of 6 | survivor count [8]: 3 of 6

CCN(CC)CCOc1cccc(O)c1
survivor count [7]: 3 of 6 | survivor count (dose: 400.0 mg/kg/injection, schedule: Q01DX001 (ip), vehicle: Klucel (hydroxypropylcellulose) (HPC)): 1 of 6 | survivor count [8]: 0 of 6

Cc1ccc(NC(=O)N(C)N)cc1
survivor count (dose: 300.0 mg/kg/injection, schedule: Q01DX001 (ip), vehicle: carboxymethylcellulose (CMC)): 2 of 6

O=C(Nc1ccc(F)cc1)Nc1ccc(CCO)cc1
survivor count [10]: 6 of 6 | survivor count (dose: 400.0 mg/kg/injection, schedule: Q01DX009 (ip), vehicle: carboxymethylcellulose (CMC)): 3 of 3
